# From paper PMC5309293
# By UniProt entry, the sequences of proteins in these tests, tags left out.
# UniProt P40763: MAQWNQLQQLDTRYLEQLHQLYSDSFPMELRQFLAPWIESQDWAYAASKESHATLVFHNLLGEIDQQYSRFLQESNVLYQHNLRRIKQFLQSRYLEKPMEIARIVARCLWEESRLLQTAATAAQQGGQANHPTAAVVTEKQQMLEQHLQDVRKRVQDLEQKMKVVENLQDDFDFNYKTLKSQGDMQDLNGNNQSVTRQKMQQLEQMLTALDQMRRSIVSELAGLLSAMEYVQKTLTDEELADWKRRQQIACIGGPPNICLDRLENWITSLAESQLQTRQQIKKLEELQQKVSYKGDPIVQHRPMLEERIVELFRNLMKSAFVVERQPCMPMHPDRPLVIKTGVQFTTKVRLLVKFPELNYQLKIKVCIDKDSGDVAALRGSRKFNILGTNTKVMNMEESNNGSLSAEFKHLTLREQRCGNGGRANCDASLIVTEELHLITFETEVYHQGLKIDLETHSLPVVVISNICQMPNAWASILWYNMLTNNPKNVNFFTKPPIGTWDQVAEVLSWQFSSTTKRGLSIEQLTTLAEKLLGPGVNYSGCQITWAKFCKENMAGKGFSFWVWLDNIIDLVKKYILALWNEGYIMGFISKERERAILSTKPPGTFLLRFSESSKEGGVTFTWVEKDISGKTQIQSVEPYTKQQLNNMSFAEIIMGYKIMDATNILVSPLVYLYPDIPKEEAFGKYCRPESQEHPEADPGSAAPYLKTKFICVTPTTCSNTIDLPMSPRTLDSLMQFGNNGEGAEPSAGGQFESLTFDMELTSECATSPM
# No constants are given. Whether binding was seen depends on the method and setting. In cells and extracts the contact can be indirect. Some entries that bind do so weakly or less than the wild type.
# B1: PSPC1 (paraspeckle component 1) (protein, UniProt Q8WXF1 1-523)
# chain: MMLRGNLKQVRIEKNPARLRALESAVGESEPAAAAAMALALAGEPAPPAPAPPEDHPDEEMGFTIDIKSFLKPGEKTYTQRCRLFVGNLPTDITEEDFKRLFERYGEPSEVFINRDRGFGFIRLESRTLAEIAKAELDGTILKSRPLRIRFATHGAALTVKNLSPVVSNELLEQAFSQFGPVEKAVVVVDDRGRATGKGFVEFAAKPPARKALERCGDGAFLLTTTPRPVIVEPMEQFDDEDGLPEKLMQKTQQYHKEREQPPRFAQPGTFEFEYASRWKALDEMEKQQREQVDRNIREAKEKLEAEMEAARHEHQLMLMRQDLMRRQEELRRLEELRNQELQKRKQIQLRHEEEHRRREEEMIRHREQEELRRQQEGFKPNYMENREQEMRMGDMGPRGAINMGDAFSPAPAGNQGPPPMMGMNMNNRATIPGPPMGPGPAMGPEGAANMGTPMMPDNGAVHNDRFPQGPPSQMGSPMGSRTGSETPQAPMSGVGPVSGGPGGFGRGSQGGNFEGPNKRRRY
# Biological target: FLAG-STAT3 (UniProt P40763)
# Experiment: co-IP; HeLa cells transfected with FLAG-STAT3 or empty vector, infected with HSV-1 for 4 h; lysates immunoprecipitated with anti-FLAG antibody; western blot for FLAG, pSTAT3 Y705, PSPC1 and β-actin
binder,measurement,value
B1,binding,binds
